Measurements from publication PMC10664913.
These are yes or no findings as the source states them, for the method shown. Binding seen in cells or lysates may run through a third protein. Binding calls can cover weak binding; strength is not graded here. Where a sequence is shown, tags or fusion partners need not be part of it.

Molecular target: His-GST-CsNOSIP (GST tagged rCsNOSIP) (Clonorchis sinensis)
Test: pull-down; 50 ug purified GST-rCsNOSIP (or purified GST) immobilised on GST affinity beads, incubated with cells lysate containing Flag-ASPSCR-1 or Flag-Sirt 5, room temperature 2 h, washed with PBS, eluted with 10 mM GSH; blots with anti-GST and anti-Flag; only the target purified

B1: Flag-ASPSCR-1 (alveolar soft part sarcoma chromosomal region candidate gene 1 protein) (protein, UniProt Q9BZE9 1-553)
chain: MAAPAGGGGSAVSVLAPNGRRHTVKVTPSTVLLQVLEDTCRRQDFNPCEYDLKFQRSVLDLSLQWRFANLPNNAKLEMVPASRSREGPENMVRIALQLDDGSRLQDSFCSGQTLWELLSHFPQIRECLQHPGGATPVCVYTRDEVTGEAALRGTTLQSLGLTGGSATIRFVMKCYDPVGKTPGSLGSSASAGQAAASAPLPLESGELSRGDLSRPEDADTSGPCCEHTQEKQSTRAPAAAPFVPFSGGGQRLGGPPGPTRPLTSSSAKLPKSLSSPGGPSKPKKSKSGQDPQQEQEQERERDPQQEQERERPVDREPVDREPVVCHPDLEERLQAWPAELPDEFFELTVDDVRRRLAQLKSERKRLEEAPLVTKAFREAQIKEKLERYPKVALRVLFPDRYVLQGFFRPSETVGDLRDFVRSHLGNPELSFYLFITPPKTVLDDHTQTLFQANLFPAALVHLGAEEPAGVYLEPGLLEHAISPSAADVLVARYMSRAAGSPSPLPAPDPAPKSEPAAEEGALVPPEPIPGTAQPVKRSLGKVPKWLKLPASKR
- binding: binds
